Data from patent US20090062512A1, “Comparative ligand mapping from MHC class I positive cells” (priority 2000, published 2009).
Entries after “also recorded” stand apart in the source; their conditions may differ. Part of at least one peptide drawing is inferred or uncertain, most often the ends. Some entries repeat one wording, which the source may state once for all of them. Ends that are not written are not given here.

Target: sHLA-A*0201 from MCF-7, MDA-MB-231, BT-20 and MCF10A (Homo sapiens, UniProt P04439, D140Y/D185E/D98H/E176V/E277Q/G131W/G231S/I119V/I121R/I166T/I218V/L300P/L318F/N151K/N90K/P208A/P217A/Q86G/Q94H/R138H/R169H/T345S)
Assay: MS comparative analysis of sHLA-A*0201 peptides, breast cancer cell lines vs nontumorigenic MCF10A
Assay type: cell-based
Conditions: for presentation by HLA A*0201 of tumorigenic vs nontumorigenic cell lines: MCF-7, MDA-MB-231, BT-20 vs MCF10A; for Presenting cell lines: sHLA-A*0201, epitopes unique to breast cancer lines, absent from MCF10A

Sequence	presentation by HLA A*0201 of tumorigenic vs nontumorigenic cell lines	Presenting cell lines
ALMPVLNQV	presented by the HLA A*0201 of all three tumorigenic lines and missing from the MCF10A pool	MCF-7, BT-20,; also recorded: MDA-MB-231
ILDQKINEV	presented by the HLA A*0201 of all three tumorigenic lines and missing from the MCF10A pool	MCF-7, BT-20,; also recorded: MDA-MB-231
FLSELTQQL	only identified in the MCF-7 and MDA-MB-231 batches	MCF-7, MDA-; also recorded: MB-231
GLNEEIARV	presented by the HLA A*0201 of all three tumorigenic lines and missing from the MCF10A pool	MCF-7, BT-20,; also recorded: MDA-MB-231
